From PMC13545989
Where a chain is given by its changes, count along the chain named. No constants are given. Whether binding was seen depends on the method and setting. In cells and extracts the contact can be indirect. Binding calls can cover weak binding; strength is not graded here. Tags and fused reporters may be left off the sequences shown.

Experiments:
Assay in all cases: co-IP; FLAG purification of Miro1/FP/FLAG/I3-01 synthetic cargo from hTERT RPE-1 cell lines co-expressing TRAK/mScarlet variants; immunoblot of the associated motor-adaptor components (kinesin, dynein, dynactin); also done after kinesin RNAi (fig. S4E)
[1] = target: T1, TRAK2 DRH mutant (F92A, M95A; mScarlet fusion) (UniProt O60296)
T1 sequence: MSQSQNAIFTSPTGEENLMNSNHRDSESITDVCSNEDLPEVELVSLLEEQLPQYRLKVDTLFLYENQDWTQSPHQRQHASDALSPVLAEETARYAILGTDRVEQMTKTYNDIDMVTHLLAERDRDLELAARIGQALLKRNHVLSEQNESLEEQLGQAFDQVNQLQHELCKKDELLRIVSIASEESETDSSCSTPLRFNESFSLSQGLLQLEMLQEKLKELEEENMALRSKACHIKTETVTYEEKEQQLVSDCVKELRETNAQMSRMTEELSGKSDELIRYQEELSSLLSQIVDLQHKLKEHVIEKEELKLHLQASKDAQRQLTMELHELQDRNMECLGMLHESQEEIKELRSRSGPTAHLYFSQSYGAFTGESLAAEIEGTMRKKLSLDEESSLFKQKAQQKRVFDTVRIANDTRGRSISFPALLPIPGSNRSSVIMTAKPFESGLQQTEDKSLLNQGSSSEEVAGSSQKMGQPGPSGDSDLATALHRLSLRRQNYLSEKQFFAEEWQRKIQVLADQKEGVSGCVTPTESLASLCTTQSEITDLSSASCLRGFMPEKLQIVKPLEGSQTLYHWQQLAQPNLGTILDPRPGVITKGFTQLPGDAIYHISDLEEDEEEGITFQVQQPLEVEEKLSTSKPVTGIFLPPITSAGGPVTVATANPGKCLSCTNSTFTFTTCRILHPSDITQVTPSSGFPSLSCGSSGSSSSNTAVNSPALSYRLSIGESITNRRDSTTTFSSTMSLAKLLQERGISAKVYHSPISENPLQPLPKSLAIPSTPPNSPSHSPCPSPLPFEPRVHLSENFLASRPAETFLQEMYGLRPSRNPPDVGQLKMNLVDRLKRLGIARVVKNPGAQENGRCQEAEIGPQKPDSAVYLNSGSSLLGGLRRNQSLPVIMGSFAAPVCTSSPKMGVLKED

[2] = target: T2, TRAK1 DRH mutant (L92A, F95A; mScarlet fusion) (UniProt Q9UPV9)
T2 sequence: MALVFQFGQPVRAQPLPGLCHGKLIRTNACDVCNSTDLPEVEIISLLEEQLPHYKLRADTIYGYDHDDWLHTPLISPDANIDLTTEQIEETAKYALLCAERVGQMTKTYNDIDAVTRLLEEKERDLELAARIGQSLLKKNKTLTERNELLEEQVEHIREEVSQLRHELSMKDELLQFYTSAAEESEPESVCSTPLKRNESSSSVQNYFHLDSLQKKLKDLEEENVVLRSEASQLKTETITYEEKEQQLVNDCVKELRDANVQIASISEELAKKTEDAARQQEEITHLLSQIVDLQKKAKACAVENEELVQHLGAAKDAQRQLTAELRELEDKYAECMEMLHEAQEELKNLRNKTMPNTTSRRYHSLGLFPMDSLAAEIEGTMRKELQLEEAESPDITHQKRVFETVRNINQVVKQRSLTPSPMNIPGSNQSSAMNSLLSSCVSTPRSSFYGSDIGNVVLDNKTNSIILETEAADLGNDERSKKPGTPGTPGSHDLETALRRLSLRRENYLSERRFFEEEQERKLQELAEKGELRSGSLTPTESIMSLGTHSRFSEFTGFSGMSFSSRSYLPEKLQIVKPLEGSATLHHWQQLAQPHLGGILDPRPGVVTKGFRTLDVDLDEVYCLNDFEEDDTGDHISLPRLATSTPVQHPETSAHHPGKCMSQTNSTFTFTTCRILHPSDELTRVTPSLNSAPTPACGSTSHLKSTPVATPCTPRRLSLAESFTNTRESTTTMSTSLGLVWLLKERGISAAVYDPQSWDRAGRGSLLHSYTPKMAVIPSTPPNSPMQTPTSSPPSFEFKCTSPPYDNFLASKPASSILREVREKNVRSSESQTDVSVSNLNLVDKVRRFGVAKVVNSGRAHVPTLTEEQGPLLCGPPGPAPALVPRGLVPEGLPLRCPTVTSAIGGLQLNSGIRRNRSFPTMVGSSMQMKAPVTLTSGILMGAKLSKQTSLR

[3] = target: T3, TRAK2 S84A (mScarlet fusion) (UniProt O60296)
T3 sequence: T1 sequence with S84A, A92F, A95M

Measured: binding

kinesin-1 (human (endogenous in hTERT RPE-1))
binds: all assays above
